Results of single-concentration screens

Amino acid sequences for entries named in this document (tags omitted). Residues count along the entry.
UniProt I6X8D2, whole entry: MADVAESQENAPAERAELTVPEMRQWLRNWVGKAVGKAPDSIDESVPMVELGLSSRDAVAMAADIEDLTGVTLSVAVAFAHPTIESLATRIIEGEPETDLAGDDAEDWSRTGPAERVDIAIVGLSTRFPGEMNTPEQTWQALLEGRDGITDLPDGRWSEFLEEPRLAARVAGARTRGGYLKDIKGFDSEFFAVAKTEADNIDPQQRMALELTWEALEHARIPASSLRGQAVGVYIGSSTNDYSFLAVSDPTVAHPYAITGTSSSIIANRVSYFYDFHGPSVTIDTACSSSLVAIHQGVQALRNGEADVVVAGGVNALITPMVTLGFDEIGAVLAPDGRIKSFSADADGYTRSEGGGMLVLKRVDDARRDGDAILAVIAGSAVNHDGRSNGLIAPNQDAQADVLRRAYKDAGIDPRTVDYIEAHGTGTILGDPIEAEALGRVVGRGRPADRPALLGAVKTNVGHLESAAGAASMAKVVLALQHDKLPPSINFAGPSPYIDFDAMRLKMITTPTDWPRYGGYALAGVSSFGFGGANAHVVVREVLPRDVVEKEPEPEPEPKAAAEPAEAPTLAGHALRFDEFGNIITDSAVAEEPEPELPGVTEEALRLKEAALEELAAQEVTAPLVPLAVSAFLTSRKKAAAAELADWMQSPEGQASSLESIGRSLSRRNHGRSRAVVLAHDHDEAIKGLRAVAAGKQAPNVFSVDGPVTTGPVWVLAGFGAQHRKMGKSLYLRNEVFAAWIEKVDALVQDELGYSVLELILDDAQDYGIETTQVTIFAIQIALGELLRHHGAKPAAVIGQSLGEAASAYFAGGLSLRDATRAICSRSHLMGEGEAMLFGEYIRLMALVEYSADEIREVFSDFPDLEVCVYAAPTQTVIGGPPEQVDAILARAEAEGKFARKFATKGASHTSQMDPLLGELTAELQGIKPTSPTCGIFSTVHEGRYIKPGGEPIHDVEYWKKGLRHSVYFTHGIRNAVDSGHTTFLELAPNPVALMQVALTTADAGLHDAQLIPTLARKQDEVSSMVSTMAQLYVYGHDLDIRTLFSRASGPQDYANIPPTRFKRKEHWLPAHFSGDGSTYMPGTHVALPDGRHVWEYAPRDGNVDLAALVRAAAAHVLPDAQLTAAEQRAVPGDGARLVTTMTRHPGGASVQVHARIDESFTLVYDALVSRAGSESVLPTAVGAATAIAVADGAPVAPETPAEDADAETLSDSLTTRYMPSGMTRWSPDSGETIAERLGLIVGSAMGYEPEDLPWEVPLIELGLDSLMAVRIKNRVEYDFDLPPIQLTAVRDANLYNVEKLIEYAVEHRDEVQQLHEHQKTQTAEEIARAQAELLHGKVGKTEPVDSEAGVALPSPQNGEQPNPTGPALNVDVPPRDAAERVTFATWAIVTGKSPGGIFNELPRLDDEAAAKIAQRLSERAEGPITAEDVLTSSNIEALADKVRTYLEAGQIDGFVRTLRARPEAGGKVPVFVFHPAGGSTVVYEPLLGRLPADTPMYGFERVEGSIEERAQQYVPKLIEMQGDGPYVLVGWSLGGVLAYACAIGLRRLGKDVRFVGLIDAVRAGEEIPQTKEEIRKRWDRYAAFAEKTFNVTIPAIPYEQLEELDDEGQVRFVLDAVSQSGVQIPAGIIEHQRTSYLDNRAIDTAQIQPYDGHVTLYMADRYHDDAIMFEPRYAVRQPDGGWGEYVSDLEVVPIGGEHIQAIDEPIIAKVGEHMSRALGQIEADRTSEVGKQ
UniProt Q8IDJ8, 1-583: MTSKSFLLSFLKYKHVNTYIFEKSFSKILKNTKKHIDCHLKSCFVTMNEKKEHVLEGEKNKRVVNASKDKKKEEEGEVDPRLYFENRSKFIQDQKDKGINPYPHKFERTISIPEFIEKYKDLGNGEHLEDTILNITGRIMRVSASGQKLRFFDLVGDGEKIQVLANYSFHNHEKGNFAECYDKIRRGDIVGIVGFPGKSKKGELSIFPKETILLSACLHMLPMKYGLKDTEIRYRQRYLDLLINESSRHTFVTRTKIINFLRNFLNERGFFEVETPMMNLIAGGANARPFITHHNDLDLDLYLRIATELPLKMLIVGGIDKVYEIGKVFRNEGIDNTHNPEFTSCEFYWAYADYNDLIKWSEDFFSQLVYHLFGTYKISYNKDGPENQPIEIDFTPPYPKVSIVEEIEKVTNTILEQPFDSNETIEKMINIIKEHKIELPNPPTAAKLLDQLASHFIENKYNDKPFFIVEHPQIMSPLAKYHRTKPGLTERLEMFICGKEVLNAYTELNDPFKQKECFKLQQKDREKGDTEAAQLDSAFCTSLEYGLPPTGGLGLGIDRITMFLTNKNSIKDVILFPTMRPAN
UniProt P9WNZ1, whole entry: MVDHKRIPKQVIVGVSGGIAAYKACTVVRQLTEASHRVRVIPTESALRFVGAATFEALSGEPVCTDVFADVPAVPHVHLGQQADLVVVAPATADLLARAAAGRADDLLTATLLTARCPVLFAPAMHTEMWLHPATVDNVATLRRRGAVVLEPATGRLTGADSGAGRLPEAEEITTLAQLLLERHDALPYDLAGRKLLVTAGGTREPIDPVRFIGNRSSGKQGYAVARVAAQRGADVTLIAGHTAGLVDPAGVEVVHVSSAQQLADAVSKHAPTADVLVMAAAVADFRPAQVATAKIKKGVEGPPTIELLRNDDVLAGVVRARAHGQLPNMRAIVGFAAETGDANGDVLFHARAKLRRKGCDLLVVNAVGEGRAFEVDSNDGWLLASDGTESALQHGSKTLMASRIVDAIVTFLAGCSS

Toxoplasma: 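Assay of Toxoplasma gondii numbers, read through their beta-galactosidase reporter with a colour substrate. Concentration: 10 µM. Higher reads as fewer parasites (inferred from which compounds were picked for retests). Of about 67,000 compounds tested this way, about 260 (0.38%) reached 50% or more in at least one test.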
Pks13 thioesterase: 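Enzyme assay of the thioesterase domain of polyketide synthase 13; the read-out is not stated. Target: Polyketide synthase Pks13, Mycobacterium tuberculosis (UniProt I6X8D2). Compounds at 30 µM. The record gives no direction; the compounds picked for IC50 retests had high values, so higher reads as stronger inhibition. Size under these conditions: about 67,000 compounds, about 300 of them at 50% or above in at least one test.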
PfKRS1: 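Lysine-tRNA ligase, Plasmodium falciparum 3D7 (UniProt Q8IDJ8). Enzyme assay of the cytosolic lysyl-tRNA synthetase in 384-well plates, read by luminescence. Compounds at 30 µM. Direction is inferred from only a few compounds that gave an IC50; most scored high, so higher reads as stronger inhibition. Size under these conditions: about 69,000 compounds, about 49 of them at 50% or above in at least one test.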
CoaBC: 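Enzyme assay of CoaBC with a phosphate dye (Biomol Green) read at 650 nm. Target: Coenzyme A biosynthesis protein CoaBC, Mycobacterium tuberculosis (UniProt P9WNZ1). Concentration: 30 µM. Higher reads as stronger inhibition, judged from the few compounds that gave an IC50. Most strong results did not repeat in a second test. Size under these conditions: about 67,000 compounds, about 40 of them at 50% or above in at least one test.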

The filed quantity is “Percent Effect” (%).
How 0% and 100% were set is not recorded. Most values in the screen are low, and negative values occur.
Compounds were drawn at random from those tested, without regard to their results.
A dash means the value is not listed here; it may have been measured.

| # | structure | Toxoplasma | Pks13 thioesterase | PfKRS1 | CoaBC |
|---|---|---|---|---|---|
| 1 | `Cc1cnccc1-c1cnn(CCNC(=O)c2cccnc2)c1C1CC1.Cl` | 3.165% | - | - | - |
| 2 | `CCN(CC)CC1CN(Cc2ccc(C)s2)Cc2nccn2C1.O=C(O)C(F)(F)F.O=C(O)C(F)(F)F` (centres undefined) | 0.818% | - | - | - |
| 3 | `CCC1c2cccn2CCN1C(=O)c1cc(OC)nc(OC)n1` (centres undefined) | 24.07% | -5.263% | -4.647% | -2.296% |
| 4 | `O=C(c1ncn2c1CNS(=O)(=O)c1ccccc1-2)N1CCCCC1` | -14.45% | -32.34% | 8.896% | 5% |
| 5 | `CN(C)C(=O)N1CCN(CCn2nc3ccccn3c2=O)CC1` | -1.357% | -18.1% | 3.726% | 6.343% |
| 6 | `O=C(O)c1ccccc1-c1ccc(CN2CC(c3ccncn3)C2)o1` | 0.8631% | 1.46% | 0.3003% | 9.685% |
| 7 | `CS(=O)(=O)NCc1nnc2n1CCN(Cc1ccc(F)cc1)C2` | -8.565% | -3.957% | 1.702% | 2% |
| 8 | `Cc1nc(CN(C)C2CCN(CCc3cnn(C)c3)C2)no1` (centres undefined) | -10.32% | -13.05% | -0.2884% | 1.305% |
| 9 | `COc1ccccc1NCC(=O)Nc1cnn(Cc2ccccn2)c1` | 4.628% | -21.44% | -3.147% | -0.638% |
| 10 | `CCn1cc(N2Cc3nc(N4CCOCC4)ncc3C2=O)cn1` | 3.467% | -11.42% | 7.965% | 0.9421% |
| 11 | `Cc1cc(C(=O)CN2CCN(c3ncccn3)CC2)c(C)n1C(C)C` | 27.28% | -7.827% | -4.956% | 6.132% |
| 12 | `[H][C@@]12CC[C@H](Oc3ccccc3Cl)[C@]1([H])CN(C(=O)CNC(C)=O)C2` | 14% | - | - | - |
| 13 | `Fc1ccc(CN2CCCC3(COCCN(Cc4c[nH]nn4)C3)C2)cc1.O=C(O)C(F)(F)F.O=C(O)C(F)(F)F` (centres undefined) | 13.58% | - | - | - |
| 14 | `CC(=O)N1CCC(Cc2cccc(-c3ccnn3C)n2)CC1` | 19.4% | 20.93% | -1.075% | -4.932% |
| 15 | `CN1CC2(CCN(C(=O)COc3ccc(Cl)cc3Cl)CC2)OC1=O` | 1.079% | -6.604% | 0.2954% | - |
| 16 | `COc1ccc(CNc2nc(C3CC3)nc3c(C)nn(C)c23)cc1` | 40.36% | -9.329% | -0.5274% | 10.68% |
| 17 | `Cc1ccc(C(=O)N(C)Cc2ccc3c(c2)OCO3)c(=O)[nH]1` | -31.9% | -26.33% | 0.0406% | 5.957% |
| 18 | `Cc1cnn(CC2CN(CC(=O)Nc3ccncc3)CCO2)c1` (centres undefined) | 9.187% | -12.45% | 2.805% | 4.707% |
| 19 | `CC(C)c1nc(CCNC(=O)NCc2ccnc(N(C)C)c2)cs1` | -3.093% | -8.503% | 1.161% | 6.266% |
| 20 | `CS(=O)(=O)N[C@@H]1CCO[C@]2(CCN(C(=O)c3cscn3)C2)C1` | -59.6% | -6.561% | 0.9628% | 2.25% |
| 21 | `O=C(c1ccccn1)N1Cc2nccn2CC(COc2cccnc2)C1` (centres undefined) | 4.06% | -1.978% | -8.543% | -1.65% |
| 22 | `COC[C@]12COC[C@H]1CN(Cc1cc(OC)cc(OC)c1)C2` | - | -30.79% | 0.9896% | 11.05% |
| 23 | `O=C(CCC(=O)N1CCc2[nH]c3ccccc3c2C1)NCc1ccco1` | -15.54% | -7.193% | 7.494% | -3.538% |
| 24 | `CCS(=O)(=O)c1ccc(N2CCC(NC(C)=O)CC2)cc1` | -0.5507% | -13.52% | -3.604% | -7.143% |
| 25 | `Cc1nnc(NC(=O)CN(C)CC2CCCN2c2cccnn2)s1` (centres undefined) | -6.676% | -17.78% | 2.132% | -2.692% |
| 26 | `CC(C)NC(=O)C1CN(Cc2ccsc2)Cc2ccnn2C1` (centres undefined) | - | -43.61% | 5.845% | -2.326% |
| 27 | `Cc1csc(N2CCN(C(=O)C(C)n3cncn3)CC2)n1` (centres undefined) | 0.351% | - | -1.476% | 1.02% |
| 28 | `COc1cccc2c1OCC(CNC(=O)CCCN1CCOCC1)C2` (centres undefined) | -0.3721% | -6.707% | 6.235% | -0.4405% |
| 29 | `[H][C@]12CCN(S(=O)(=O)N(C)C)C[C@@]1([H])CN(Cc1cnn(C)c1)C2` | -2.217% | - | - | - |
| 30 | `COCCN1CCc2ncnc(OC(C)C)c2CC1` | - | -18.08% | 6.746% | 3.218% |
| 31 | `CC(C)NC(=O)Nc1ccccc1CN1CCOCC1` | -1.681% | - | 2.97% | 8.584% |
| 32 | `CC(SCC(=O)NC(N)=O)c1ccccc1F` (centres undefined) | - | - | 4.238% | -1.599% |
| 33 | `CC(C)=CCN1C[C@H]2CC[C@@H]1CN(C(=O)c1ccc3c(c1)OCO3)C2` | - | -7.732% | 4.076% | -3.354% |
| 34 | `O=C(O)C(F)(F)F.O=C(O)C(F)(F)F.c1csc(CN2CCCC3(COCCN(c4cnccn4)C3)C2)c1` (centres undefined) | -11.63% | - | - | - |
| 35 | `Cc1noc(C)c1CN(C)Cc1csc(-c2ccc(C(C)C)cc2)n1` | 4.135% | 12.07% | 2.065% | 2.848% |
| 36 | `O=C(O)c1cnc(N2CCCC2)nc1COc1ccccc1` | 10.34% | -14.59% | 2.267% | -1.042% |
| 37 | `FC(F)(F)Sc1ccccc1NCc1nc(C2CC2)no1` | -20.49% | -4.904% | -1.988% | -0.2475% |
| 38 | `Cc1cn2c(n1)CCC(NC(=O)c1csc(C(C)C)n1)C2` (centres undefined) | 14.37% | -11.81% | -1.179% | 1.044% |
| 39 | `CCCc1noc(CCC(=O)N2CCCC(c3ccn[nH]3)C2)n1` (centres undefined) | -10.73% | -19.96% | 0.8396% | 2.981% |
| 40 | `CCc1nnsc1C(=O)NCCC1CN(C(C)C)CCO1` (centres undefined) | -23.51% | -2.526% | 2.06% | 7.426% |
| 41 | `O=C(CCc1nc(Cl)n[nH]1)NC1CCCN(CC2CCCCC2)C1` (centres undefined) | - | -32.93% | 5.071% | 4.551% |
| 42 | `CN(C(=O)C1(C#N)CCCCC1)c1nccs1` | 18.21% | -11.87% | 5.792% | -1.636% |
| 43 | `CCc1ccc(C2CC(=O)Nc3cc(OC)c(NS(C)(=O)=O)cc32)o1` (centres undefined) | -10.53% | - | 3.356% | 9.091% |
| 44 | `[H][C@]12CC[C@@]3(N=C(C)N(CCOC)C3=O)[C@@]1([H])CN(C(=O)NCC(C)C)C2` | 1.389% | - | - | - |
| 45 | `CC(=O)N(Cc1noc(C)n1)C1CCN(Cc2ccncc2Cl)C1` (centres undefined) | 0.6187% | -5.64% | 8.13% | 7.572% |
| 46 | `COc1cccc(S(=O)(=O)N2CCC(O)(CN(C)C)C2)c1` (centres undefined) | -5.518% | -13.78% | 6.82% | 2.749% |
| 47 | `[H][C@@]12CN(C3CCOCC3)C[C@]1([H])N(CCCc1ccc(OC)cc1)C(=O)O2` | -9.837% | - | - | - |
| 48 | `Cc1nnc(NC(=O)NCc2ccc(C)n2C)s1` | 0.575% | -7.054% | 4.277% | 5.221% |
| 49 | `CCN1CCC(Cn2ccc3c(OC)c(OC)ccc3c2=O)C1` (centres undefined) | 5.947% | -24.36% | 8.295% | 7.863% |
| 50 | `CC(OCC1CC1)C(=O)N1CCCN(Cc2cscn2)CC1` (centres undefined) | -7.852% | -14.56% | 0.7205% | -3.069% |
| 51 | `CN(C)c1ccc(CCNC(=O)NCc2ccc(N(C)C)nc2)cc1` | 4.997% | -1.894% | 8.356% | 4.626% |
| 52 | `NC(=O)C1CCN(C(=O)c2ccccc2OCc2ccncc2)CC1` | -12.42% | -6.782% | 0.6804% | 0.7444% |
| 53 | `COc1ccc(C[C@H]2CN(C3CCOCC3)CC[C@H]2OCC2CC2)cc1` | - | -25.18% | 0.02294% | -0.7634% |

The last 5 entries again:

{"structure": "CCN1CCC(Cn2ccc3c(OC)c(OC)ccc3c2=O)C1", "stereo": "centres undefined", "Toxoplasma": 5.947, "Pks13 thioesterase": -24.36, "PfKRS1": 8.295, "CoaBC": 7.863}
{"structure": "CC(OCC1CC1)C(=O)N1CCCN(Cc2cscn2)CC1", "stereo": "centres undefined", "Toxoplasma": -7.852, "Pks13 thioesterase": -14.56, "PfKRS1": 0.7205, "CoaBC": -3.069}
{"structure": "CN(C)c1ccc(CCNC(=O)NCc2ccc(N(C)C)nc2)cc1", "Toxoplasma": 4.997, "Pks13 thioesterase": -1.894, "PfKRS1": 8.356, "CoaBC": 4.626}
{"structure": "NC(=O)C1CCN(C(=O)c2ccccc2OCc2ccncc2)CC1", "Toxoplasma": -12.42, "Pks13 thioesterase": -6.782, "PfKRS1": 0.6804, "CoaBC": 0.7444}
{"structure": "COc1ccc(C[C@H]2CN(C3CCOCC3)CC[C@H]2OCC2CC2)cc1", "Pks13 thioesterase": -25.18, "PfKRS1": 0.02294, "CoaBC": -0.7634}

Source: ChEMBL document CHEMBL3988442, “University of Dundee, Small-Polar-MMV Screening Library” (2021).